Laboratory results taken from paper PMC11891122.
These are yes or no findings as the source states them, for the method shown.

Sequences of proteins named here, by UniProt entry; tags and fusion partners are left off.
UniProt Q7XC27: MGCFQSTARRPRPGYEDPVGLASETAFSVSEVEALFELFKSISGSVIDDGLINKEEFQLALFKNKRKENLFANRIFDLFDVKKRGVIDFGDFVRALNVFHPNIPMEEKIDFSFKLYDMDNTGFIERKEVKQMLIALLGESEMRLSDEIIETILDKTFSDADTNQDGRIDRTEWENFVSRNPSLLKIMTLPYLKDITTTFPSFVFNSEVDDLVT

Target: T1, OsSPX4 (rice) (UniProt Q10B79)
T1 sequence: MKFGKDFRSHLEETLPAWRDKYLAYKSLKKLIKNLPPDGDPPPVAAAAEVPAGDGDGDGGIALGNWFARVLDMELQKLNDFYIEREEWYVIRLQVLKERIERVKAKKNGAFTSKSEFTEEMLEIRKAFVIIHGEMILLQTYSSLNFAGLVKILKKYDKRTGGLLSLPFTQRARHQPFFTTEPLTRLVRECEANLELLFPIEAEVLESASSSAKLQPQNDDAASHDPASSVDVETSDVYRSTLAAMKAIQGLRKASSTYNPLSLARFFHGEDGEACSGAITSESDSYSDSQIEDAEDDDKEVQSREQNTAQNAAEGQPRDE
Assay: two-hybrid; yeast two-hybrid (Y2H); no conditions, vectors or orientation told in the text shown

In the case of “Calcineurin B-like protein-1 (OsCBL1) (from UniProt Q7XC27 1-213)”, the binding is reported as “no binding”.
